# At least one structure is not confirmed: it was looked up by name or label, or the drawing left a doubt.
# Tested on: human osteosarcoma cell line SJSA-1
# Experiment: Inhibition of proliferation of human osteosarcoma cell line SJSA-1 (DAPI staining, In Cell Analyzer)
# Details: labels are Example numbers; the compounds with S-configuration are meant
smiles,measurement,value
"COc1cc(C#N)ccc1-c1nc2c(n1C(C)C)C1(C(=O)Nc3cc(Cl)ccc31)N(c1cc(Cl)ccc1C)C2=O (stereo not shown) [Example 12, 4-(6-chloro-5′-(5-chloro-2-methylphenyl)-3′-isopropyl-2,6′-dioxo-5′,6′-dihydro-3′H-spiro[dihydroindole-3,4′-pyrrolo[3,4-d]imidazole]-2′-yl)-3-methoxybenzonitrile]",inhibitory effect on human osteosarcoma cell line SJSA-1 compared with positive control compound HDM201,better

# Reference: patent US11339171B2, “MDM2 inhibitors” (Gan & Lee Pharmaceuticals, priority 2017, dated 2022)
